Values from PubChem BioAssay AID652272 (Drosophila RNAi Screening Center, 2013)

- Assay: 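Finding fly genes that regulate Hedgehog signal transduction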 (primary screen)
- Cells: Drosophila clone 8 (Cl8) cells
- Knock-down reagent: long dsRNA against Drosophila genes
- Read-out: 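Firefly light from a Hedgehog-responsive ptc promoter reporter and Renilla reference light, both read on a plate reader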
- Direction: firefly Hh reporter signal: higher = more ptc reporter light; Renilla reference signal: higher = more Renilla control light
- Hit rule: 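Hit when the z-score averaged over two replicates is under -2 or over +3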
- Meaning of the calls: active = hit: reporter lowered or raised; inactive = not a hit
The screen tested about 21,000 reagents; this is an unselected part of those with a known target gene and a result. Over the whole deposit, 503 (2.4%) are marked active. 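Raw plate light values, not normalised; calls rest on replicate z-scores that were not deposited; hits include reporter decreases as well as increases.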 Reagents against one gene are numbered here. A plus sign joins genes that one reagent is predicted to hit. The record does not give: the amount of reagent, the time to read-out.

| target | reagent no. | firefly Hh reporter signal, replicate 1 | firefly Hh reporter signal, replicate 2 | firefly Hh reporter signal, replicate 3 | Renilla reference signal, replicate 1 | Renilla reference signal, replicate 2 | activity call |
| --- | --- | --- | --- | --- | --- | --- | --- |
| Tip60 (Tat interactive protein 60kDa) | 1 | 1.20e5 | 1.18e5 | – | 2801 | 4672 | inactive |
| Proc-R (Proctolin receptor) | 1 | 60041 | 1.66e5 | – | 1509 | 6535 | inactive |
| ich (ichor) | 1 | 1.56e5 | – | – | 2656 | – | inactive |
| ich (ichor) | 2 | 90193 | 1.07e5 | – | 3987 | 2992 | inactive |
| Drat (Death resistor Adh domain containing target) | 1 | 90089 | 60617 | – | 2884 | 1858 | inactive |
| Atg3 (Autophagy-related 3) | 1 | 1.39e5 | 7.66e5 | 1.24e5 | 5648 | 40643 | inactive |
| rno (rhinoceros) | 1 | 1.29e5 | 65287 | – | 3936 | 4085 | inactive |
| Elys | 1 | 87660 | 65034 | – | 2369 | 1808 | inactive |
| CG12684 | 1 | 59245 | 2.41e5 | – | 2215 | 8663 | inactive |
| pico | 1 | 64985 | 1.13e5 | – | 1475 | 4872 | inactive |
| Bin1 (Bicoid interacting protein 1) | 1 | 82320 | 79337 | – | 2716 | 1979 | inactive |
| CtsL3 (Cathepsin L3) | 1 | 1.59e5 | 96723 | – | 5513 | 3669 | inactive |
| CG17140 + CG17139 | 1 | 74615 | 61408 | – | 2165 | 5688 | inactive |
| CG17140 + CG17139 | 2 | 1.15e5 | 74156 | – | 3037 | 6652 | inactive |
| CG15365 | 1 | 31164 | 26264 | – | 2345 | 1050 | inactive |
| CG43322 | 1 | 91813 | 47387 | – | 2372 | 4336 | inactive |
| Osi19 (Osiris 19) | 1 | 59088 | 1.28e5 | – | 2132 | 3611 | inactive |
| Buffy | 1 | 1.03e5 | 51712 | – | 2160 | 3808 | inactive |
| CG30394 | 1 | 84119 | 54315 | – | 2694 | 5305 | inactive |
| CG30394 | 2 | 62804 | 45845 | – | 1696 | 4234 | inactive |
| AdamTS-B (ADAM metallopeptidase with thrombospondin type 1 motif B) | 1 | 4.24e5 | 1.50e5 | – | 22333 | 3001 | inactive |
| AdamTS-B (ADAM metallopeptidase with thrombospondin type 1 motif B) | 2 | 1.09e5 | 3.05e5 | – | 3588 | 11828 | inactive |
| BobA | 1 | 1.27e5 | – | – | 1856 | 3053 | inactive |
| crim (crimpled) | 1 | 73108 | 67702 | – | 3079 | 3079 | inactive |
| Vps2 (Vacuolar protein sorting 2) | 1 | 88279 | 69941 | – | 2011 | 1785 | inactive |
| I-3 (Inhibitor-3) | 1 | 75974 | 1.87e5 | – | 3521 | 8691 | inactive |
| Ir10a (Ionotropic receptor 10a) | 1 | 5.57e5 | 2.03e5 | – | 29881 | 3549 | inactive |
| Ir10a (Ionotropic receptor 10a) | 2 | 64937 | 1.67e5 | – | 2722 | 6210 | inactive |
| Ir10a (Ionotropic receptor 10a) | 3 | 61580 | 1.93e5 | – | 2413 | 6929 | inactive |
| NKCC (sodium potassium chloride cotransporter) | 1 | 1.53e5 | 80204 | – | 6053 | 3496 | inactive |
| NKCC (sodium potassium chloride cotransporter) | 2 | 52323 | 1.02e5 | – | 2225 | 2868 | inactive |
| Sik3 (Salt-inducible kinase 3) | 1 | 1.26e5 | 63696 | – | 3224 | 4560 | inactive |
| Sik3 (Salt-inducible kinase 3) | 2 | 88844 | 66214 | – | 4059 | 2586 | inactive |
| Lcp65Ac | 1 | 85992 | 52313 | – | 8918 | 4544 | inactive |
| ctrip (circadian trip) | 1 | 69900 | 66496 | – | 3450 | 3221 | active |
| ctrip (circadian trip) | 2 | 88672 | 62406 | – | 4884 | 3381 | inactive |
| CG11349 | 1 | 52118 | 54914 | – | 5654 | 3655 | inactive |
| frac (faulty attraction) | 1 | 1.23e5 | 56068 | – | 5163 | 2483 | inactive |
| CG1773 | 1 | 72394 | 71201 | – | 3852 | 3490 | inactive |
| VAChT + ChAT | 1 | 55825 | 1.73e5 | – | 10455 | 2533 | inactive |
| CG7031 | 1 | 1.55e5 | 12347 | – | 13056 | 825 | inactive |
| fsd (fates-shifted) | 1 | 94272 | 43655 | – | 2345 | 3527 | inactive |
| CG4968 | 1 | 1.22e5 | 6.09e5 | 99746 | 4744 | 35693 | inactive |
| mRpL4 (mitochondrial ribosomal protein L4) | 1 | 77949 | 43046 | – | 3717 | 1760 | inactive |
| CG5397 | 1 | 92795 | 87561 | – | 3617 | 3625 | inactive |
| CG15152 | 1 | 1.11e5 | 59677 | – | 2928 | 5383 | inactive |
| Nlp (Nucleoplasmin) | 1 | 72229 | 54520 | – | 2608 | 2304 | inactive |
| Oseg2 (Outer segment 2) | 1 | 73308 | 40691 | – | 2326 | 3176 | inactive |
| Surf1 (Surfeit 1) | 1 | 17700 | 23744 | – | 3032 | 2394 | inactive |
| Surf1 (Surfeit 1) | 2 | 1.30e5 | 1.52e5 | – | 5376 | 5769 | inactive |
| Sec13 (Secretory 13) | 1 | 70690 | 59356 | – | 3041 | 3299 | inactive |
| CG18558 | 1 | 1.65e5 | 1.21e5 | – | 3273 | 2633 | inactive |
| CG42697 | 1 | 1.38e5 | 1.73e5 | – | 4048 | 7760 | inactive |
| CG16903 | 1 | 92163 | 1.57e5 | – | 4400 | 6785 | inactive |
| CG31515 | 1 | 37696 | 1.89e5 | – | 9835 | 4272 | inactive |
| BigH1 (Histone H1 variant BigH1) | 1 | 91769 | 77620 | – | 3444 | 3372 | inactive |
| RN-tre (Related to the N terminus of tre oncogene) | 1 | 1.32e5 | 86455 | – | 3059 | 6091 | inactive |
| NimC1 (Nimrod C1) | 1 | 1.03e5 | 41962 | – | 2688 | 3968 | inactive |
| Pif2 (PFTAIRE-interacting factor 2) | 1 | 60437 | 72086 | – | 2304 | 2299 | inactive |
| Gad1 (Glutamic acid decarboxylase 1) | 1 | 46983 | 34931 | – | 2514 | 1876 | inactive |
| Trx2 (Thioredoxin 2) | 1 | 1.57e5 | 87905 | – | 3938 | 6208 | inactive |
| betaCOP (Coat Protein (coatomer) beta) | 1 | 59988 | 39316 | – | 1856 | 1445 | active |
| CG13005 | 1 | 78173 | 2.31e5 | – | 2787 | 8932 | inactive |
| f (forked) | 1 | 5.05e5 | 69252 | – | 2930 | 2930 | inactive |
| f (forked) | 2 | 79651 | 1.78e5 | – | 2544 | 7195 | inactive |
| f (forked) | 3 | 84757 | 1.61e5 | – | 3024 | 7878 | inactive |
| CG32305 | 1 | 64721 | 43264 | – | 2325 | 3607 | inactive |
| CG11227 | 1 | 1.02e5 | 1.83e5 | – | 4004 | 8213 | inactive |
| bark (bark beetle) | 1 | 1.38e5 | 56336 | – | 3530 | 5813 | inactive |
| CG3588 | 1 | 1.03e5 | 2.67e5 | – | 4028 | 8621 | inactive |
| Shawl (Shaw-like) | 1 | 1.31e5 | 52673 | – | 3545 | 5595 | inactive |
| Shawl (Shaw-like) | 2 | 1.45e5 | 62180 | – | 3959 | 6841 | inactive |
| Tim17a2 | 1 | 1.12e5 | 1.89e5 | – | 2920 | 5256 | inactive |

5 entries from above, arranged by “Renilla reference signal, replicate 2”, ascending:
| target | reagent no. | firefly Hh reporter signal, replicate 1 | firefly Hh reporter signal, replicate 2 | firefly Hh reporter signal, replicate 3 | Renilla reference signal, replicate 1 | Renilla reference signal, replicate 2 | activity call |
| --- | --- | --- | --- | --- | --- | --- | --- |
| Pif2 (PFTAIRE-interacting factor 2) | 1 | 60437 | 72086 | – | 2304 | 2299 | inactive |
| BigH1 (Histone H1 variant BigH1) | 1 | 91769 | 77620 | – | 3444 | 3372 | inactive |
| NimC1 (Nimrod C1) | 1 | 1.03e5 | 41962 | – | 2688 | 3968 | inactive |
| CG31515 | 1 | 37696 | 1.89e5 | – | 9835 | 4272 | inactive |
| RN-tre (Related to the N terminus of tre oncogene) | 1 | 1.32e5 | 86455 | – | 3059 | 6091 | inactive |
